PubChem BioAssay AID1159578, Peter MacCallum Cancer Centre | 2015
Shown is an unselected part of about 18,000 reagents tested. Of all reagents, about 1,030 (5.7%) got an active call. 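Inactive calls also include pools with fewer than 3300 nuclei, whose migration was not assessed.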 The raw values are shown without normalisation.

Assay: 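siRNA pools altering how lymphatic endothelial cells close a scratch wound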 (primary screen)
System: human lymphatic endothelial cells
Reagent: siRNA pool against human genes, 40 nM
Duration: 48 h after transfection
Detection: 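Cells stained with dye and imaged after a scratch; covered wound area and nuclei counted, duplicates averaged, migration set against mock wells and turned into a robust z-score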
Scale: migration robust z-score: higher = faster migration into the scratch; migration relative to mock: higher = more scratch area covered than mock; nuclei per well: higher = more cells in the well
Call rule: 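Pools averaging fewer than 3300 nuclei are never called; remaining pools count as changed when migration robust z lies outside -2 to 2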
Calls: active = migration changed; inactive = no migration change, or too few cells

target gene | migration robust z-score | migration class with cell-count check | migration relative to mock | nuclei per well, duplicate mean | Outcome
H2AC6 (H2A clustered histone 6) | 1.21 | migration z between -2 and 2; enough cells | 1.2 | 5062 | inactive
ANKRD23 (ankyrin repeat domain 23) | 0.24 | migration z between -2 and 2; enough cells | 0.94 | 5694 | inactive
HP1BP3 (heterochromatin protein 1 binding protein 3) | 1.4 | migration z between -2 and 2; enough cells | 1.25 | 5878 | inactive
ENG (endoglin) | 1.21 | migration z between -2 and 2; enough cells | 1.21 | 5641 | inactive
PGM2 (phosphoglucomutase 2) | 0.57 | migration z between -2 and 2; enough cells | 0.92 | 5404 | inactive
VRK1 (VRK serine/threonine kinase 1) | -0.18 | migration z between -2 and 2; enough cells | 0.77 | 5862 | inactive
ZCCHC3 (zinc finger CCHC-type containing 3) | -2.14 | migration z below -2; enough cells | 0.32 | 3306 | active
SPCS2P4 (signal peptidase complex subunit 2 pseudogene 4) | -0.01 | migration z between -2 and 2; enough cells | 0.88 | 6260 | inactive
H2BC8 (H2B clustered histone 8) | 1.87 | migration z between -2 and 2; enough cells | 1.37 | 5776 | inactive
SULT1A4 (sulfotransferase family 1A member 4) | -0.34 | migration z between -2 and 2; enough cells | 0.74 | 5962 | inactive
FAM168A (family with sequence similarity 168 member A) | -0.36 | migration z between -2 and 2; enough cells | 0.79 | 3826 | inactive
SPAG4 (sperm associated antigen 4) | 0.42 | migration z between -2 and 2; enough cells | 1 | 6655 | inactive
OR4F5 (olfactory receptor family 4 subfamily F member 5) | 2.08 | migration z above 2; enough cells | 1.42 | 6038 | active
RBM12 (RNA binding motif protein 12) | 0.74 | migration z between -2 and 2; enough cells | 1.08 | 5928 | inactive
DBT (dihydrolipoamide branched chain transacylase E2) | 0.24 | migration z between -2 and 2; enough cells | 0.85 | 5194 | inactive
INHBB (inhibin subunit beta B) | -0.42 | migration z between -2 and 2; enough cells | 0.73 | 5612 | inactive
CFC1B (cryptic, EGF-CFC family member 1B) | -0.33 | migration z between -2 and 2; enough cells | 0.8 | 6324 | inactive
MKI67 (marker of proliferation Ki-67) | 0.11 | migration z between -2 and 2; enough cells | 0.92 | 6676 | inactive
LY75 (lymphocyte antigen 75) | 1.02 | migration z between -2 and 2; enough cells | 1.15 | 6011 | inactive
SANBR (SANT and BTB domain regulator of CSR) | -0.14 | migration z between -2 and 2; enough cells | 0.84 | 5138 | inactive
TLE2 (TLE family member 2, transcriptional corepressor) | 0.88 | migration z between -2 and 2; enough cells | 0.98 | 6450 | inactive
H4C3 (H4 clustered histone 3) | -0.48 | migration z between -2 and 2; enough cells | 0.76 | 6067 | inactive
CALR (calreticulin) | 1.14 | migration z between -2 and 2; enough cells | 1.02 | 6255 | inactive
HOXD10 (homeobox D10) | 0.68 | migration z between -2 and 2; enough cells | 0.94 | 6220 | inactive
BMPER (BMP binding endothelial regulator) | 1.02 | migration z between -2 and 2; enough cells | 1.16 | 5484 | inactive
PTMA (prothymosin alpha) | -5.27 | under 3300 nuclei; migration not judged | -0.21 | 1192 | inactive
EGR4 (early growth response 4) | -0.78 | migration z between -2 and 2; enough cells | 0.66 | 4674 | inactive
ESCO1 | -0.3 | migration z between -2 and 2; enough cells | 0.81 | 5236 | inactive
CHAMP1 (chromosome alignment maintaining phosphoprotein 1) | 0.93 | migration z between -2 and 2; enough cells | 1.12 | 4038 | inactive
MSANTD3 (Myb/SANT DNA binding domain containing 3) | -0.24 | migration z between -2 and 2; enough cells | 0.82 | 6274 | inactive
SLC22A8 | -0.44 | migration z between -2 and 2; enough cells | 0.72 | 4081 | inactive
RAB6B (RAB6B, member RAS oncogene family) | -0.34 | migration z between -2 and 2; enough cells | 0.74 | 5636 | inactive
RECQL4 (RecQ like helicase 4) | -0.31 | migration z between -2 and 2; enough cells | 0.74 | 5434 | inactive
CPA2 (carboxypeptidase A2) | 0.16 | migration z between -2 and 2; enough cells | 0.83 | 5048 | inactive
AIG1 (androgen induced 1) | -0.52 | migration z between -2 and 2; enough cells | 0.75 | 5890 | inactive
GTF3C1 (general transcription factor IIIC subunit 1) | -1.4 | migration z between -2 and 2; enough cells | 0.54 | 5504 | inactive
CASTOR3P (CASTOR family member 3, pseudogene) | 0.13 | migration z between -2 and 2; enough cells | 0.92 | 4815 | inactive
TBC1D10C (TBC1 domain family member 10C) | -0.56 | migration z between -2 and 2; enough cells | 0.74 | 4783 | inactive
BLTP2 (bridge-like lipid transfer protein family member 2) | -0.7 | migration z between -2 and 2; enough cells | 0.7 | 4756 | inactive
